From PMC6282339
These are yes or no findings as the source states them, for the method shown. Binding seen in cells or lysates may run through a third protein. Some entries that bind do so weakly or less than the wild type. For some of these results: Tags and fused reporters may be left off the sequences shown. One block for each molecule: values may come before it.

By UniProt entry, the sequences of proteins in these tests, tags left out.
UniProt O75563: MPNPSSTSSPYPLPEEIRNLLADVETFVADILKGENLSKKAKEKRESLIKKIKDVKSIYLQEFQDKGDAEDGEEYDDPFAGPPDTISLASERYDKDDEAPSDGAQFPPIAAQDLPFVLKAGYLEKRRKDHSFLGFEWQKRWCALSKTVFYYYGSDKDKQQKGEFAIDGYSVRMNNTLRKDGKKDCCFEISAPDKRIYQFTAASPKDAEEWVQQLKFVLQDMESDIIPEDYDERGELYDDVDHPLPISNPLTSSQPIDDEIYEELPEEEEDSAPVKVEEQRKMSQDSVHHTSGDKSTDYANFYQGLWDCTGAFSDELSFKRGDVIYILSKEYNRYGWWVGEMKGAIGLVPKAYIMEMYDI

How the values were obtained:
[1] = molecular target: SKAP2, Flag-tagged or GFP-tagged copy (UniProt O75563); assay: co-IP; Flag- and GFP-tagged proteins co-expressed in 293T cells; Triton X-100 lysis; anti-Flag precipitation with protein G-Sepharose, 1-2 h at 4 °C; blotted with anti-Flag or anti-GFP
[2] = molecular target: SKAP1 (SKAP-55), wild type, Flag-tagged or GFP-tagged copy (UniProt Q86WV1); assay: as above
[3] = molecular target: SKAP1 (SKAP-55), wild type, Flag-tagged or GFP-tagged copy (UniProt Q86WV1); assay: co-IP; GFP-SKAP1, Flag-SKAP1 (wild type or A17/F20/L21 mutant) and V5-RapL co-expressed in 293T cells; precipitation with anti-Flag, anti-GFP or anti-V5
[4] = molecular target: SKAP1 (SKAP-55), wild type, Flag-tagged or GFP-tagged copy (UniProt Q86WV1); assay: co-IP; Combinations of Flag- and GFP-tagged SKAP1 expressed in 293T cells; anti-Flag precipitation; blotted with anti-SKAP1

- binding [1]: binds
Molecule: SKAP2, Flag-tagged or GFP-tagged copy (from UniProt O75563 1-359)

- binding [2]: binds
- binding [3]: binds
- binding [4]: binds
B1: SKAP1 (SKAP-55), wild type, Flag-tagged or GFP-tagged copy (protein, UniProt Q86WV1 1-359)
chain: MQAAALPEEIRWLLEDAEEFLAEGLRNENLSAVARDHRDHILRGFQQIKARYYWDFQPQGGDIGQDSSDDNHSGTLGLSLTSDAPFLSDYQDEGMEDIVKGAQELDNVIKQGYLEKKSKDHSFFGSEWQKRWCVVSRGLFYYYANEKSKQPKGTFLIKGYGVRMAPHLRRDSKKESCFELTSQDRRSYEFTATSPAEARDWVDQISFLLKDLSSLTIPYEEDEEEEEKEETYDDIDGFDSPSCGSQCRPTILPGSVGIKEPTEEKEEEDIYEVLPDEEHDLEEDESGTRRKGVDYASYYQGLWDCHGDQPDELSFQRGDLIRILSKEYNMYGWWVGELNSLVGIVPKEYLTTAFEVEER
